This passage reports binding results from PMC3600519, “Acute toxicity of vipoxin and its components: is the acidic component an “inhibitor” of PLA2 toxicity?” (Interdisciplinary Toxicology, 2012).

Results are given in words; binding and its absence hold for the method and conditions named. Some entries that bind do so weakly or less than the wild type.

In the assay the target is T1, vipoxin basic and toxic phospholipase A2 subunit (Vipera ammodytes meridionalis) (UniProt P14420).
T1 sequence: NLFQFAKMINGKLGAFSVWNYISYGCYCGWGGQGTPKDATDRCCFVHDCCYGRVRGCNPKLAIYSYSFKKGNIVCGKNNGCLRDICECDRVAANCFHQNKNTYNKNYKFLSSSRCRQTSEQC
Nature of the assay: co-purification by ion-exchange chromatography.

B1: vipoxin's acidic component (natural protein)
chain: NLFQFGDMILQKTGKEAVHSYAIYGCYCGWGGQGRAQDATDRCCFAQDCCYGRVNDCNPKTATYTYSFENGDIVCGDNDLCLRAVCECDRAAAICLGENVNTYDKNYEYYSISHCTEESEQC
Regarding B1, the binding result was “binds”.
